Results from paper PMC3823855.
Results are given in words; binding and its absence hold for the method and conditions named. In cells and extracts the contact can be indirect. Some results given as binding are weak or reduced against the parent protein; the word gives no strength.

By UniProt entry, the sequences of proteins in these tests, tags left out.
UniProt Q01147: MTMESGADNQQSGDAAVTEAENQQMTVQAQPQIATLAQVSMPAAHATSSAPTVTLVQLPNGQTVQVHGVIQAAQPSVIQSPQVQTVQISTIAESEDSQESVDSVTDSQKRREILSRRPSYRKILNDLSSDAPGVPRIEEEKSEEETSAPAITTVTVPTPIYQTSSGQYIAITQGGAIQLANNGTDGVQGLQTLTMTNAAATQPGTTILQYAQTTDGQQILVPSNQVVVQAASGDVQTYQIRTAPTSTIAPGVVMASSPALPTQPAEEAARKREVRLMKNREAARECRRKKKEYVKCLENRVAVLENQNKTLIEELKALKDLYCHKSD
UniProt P45481: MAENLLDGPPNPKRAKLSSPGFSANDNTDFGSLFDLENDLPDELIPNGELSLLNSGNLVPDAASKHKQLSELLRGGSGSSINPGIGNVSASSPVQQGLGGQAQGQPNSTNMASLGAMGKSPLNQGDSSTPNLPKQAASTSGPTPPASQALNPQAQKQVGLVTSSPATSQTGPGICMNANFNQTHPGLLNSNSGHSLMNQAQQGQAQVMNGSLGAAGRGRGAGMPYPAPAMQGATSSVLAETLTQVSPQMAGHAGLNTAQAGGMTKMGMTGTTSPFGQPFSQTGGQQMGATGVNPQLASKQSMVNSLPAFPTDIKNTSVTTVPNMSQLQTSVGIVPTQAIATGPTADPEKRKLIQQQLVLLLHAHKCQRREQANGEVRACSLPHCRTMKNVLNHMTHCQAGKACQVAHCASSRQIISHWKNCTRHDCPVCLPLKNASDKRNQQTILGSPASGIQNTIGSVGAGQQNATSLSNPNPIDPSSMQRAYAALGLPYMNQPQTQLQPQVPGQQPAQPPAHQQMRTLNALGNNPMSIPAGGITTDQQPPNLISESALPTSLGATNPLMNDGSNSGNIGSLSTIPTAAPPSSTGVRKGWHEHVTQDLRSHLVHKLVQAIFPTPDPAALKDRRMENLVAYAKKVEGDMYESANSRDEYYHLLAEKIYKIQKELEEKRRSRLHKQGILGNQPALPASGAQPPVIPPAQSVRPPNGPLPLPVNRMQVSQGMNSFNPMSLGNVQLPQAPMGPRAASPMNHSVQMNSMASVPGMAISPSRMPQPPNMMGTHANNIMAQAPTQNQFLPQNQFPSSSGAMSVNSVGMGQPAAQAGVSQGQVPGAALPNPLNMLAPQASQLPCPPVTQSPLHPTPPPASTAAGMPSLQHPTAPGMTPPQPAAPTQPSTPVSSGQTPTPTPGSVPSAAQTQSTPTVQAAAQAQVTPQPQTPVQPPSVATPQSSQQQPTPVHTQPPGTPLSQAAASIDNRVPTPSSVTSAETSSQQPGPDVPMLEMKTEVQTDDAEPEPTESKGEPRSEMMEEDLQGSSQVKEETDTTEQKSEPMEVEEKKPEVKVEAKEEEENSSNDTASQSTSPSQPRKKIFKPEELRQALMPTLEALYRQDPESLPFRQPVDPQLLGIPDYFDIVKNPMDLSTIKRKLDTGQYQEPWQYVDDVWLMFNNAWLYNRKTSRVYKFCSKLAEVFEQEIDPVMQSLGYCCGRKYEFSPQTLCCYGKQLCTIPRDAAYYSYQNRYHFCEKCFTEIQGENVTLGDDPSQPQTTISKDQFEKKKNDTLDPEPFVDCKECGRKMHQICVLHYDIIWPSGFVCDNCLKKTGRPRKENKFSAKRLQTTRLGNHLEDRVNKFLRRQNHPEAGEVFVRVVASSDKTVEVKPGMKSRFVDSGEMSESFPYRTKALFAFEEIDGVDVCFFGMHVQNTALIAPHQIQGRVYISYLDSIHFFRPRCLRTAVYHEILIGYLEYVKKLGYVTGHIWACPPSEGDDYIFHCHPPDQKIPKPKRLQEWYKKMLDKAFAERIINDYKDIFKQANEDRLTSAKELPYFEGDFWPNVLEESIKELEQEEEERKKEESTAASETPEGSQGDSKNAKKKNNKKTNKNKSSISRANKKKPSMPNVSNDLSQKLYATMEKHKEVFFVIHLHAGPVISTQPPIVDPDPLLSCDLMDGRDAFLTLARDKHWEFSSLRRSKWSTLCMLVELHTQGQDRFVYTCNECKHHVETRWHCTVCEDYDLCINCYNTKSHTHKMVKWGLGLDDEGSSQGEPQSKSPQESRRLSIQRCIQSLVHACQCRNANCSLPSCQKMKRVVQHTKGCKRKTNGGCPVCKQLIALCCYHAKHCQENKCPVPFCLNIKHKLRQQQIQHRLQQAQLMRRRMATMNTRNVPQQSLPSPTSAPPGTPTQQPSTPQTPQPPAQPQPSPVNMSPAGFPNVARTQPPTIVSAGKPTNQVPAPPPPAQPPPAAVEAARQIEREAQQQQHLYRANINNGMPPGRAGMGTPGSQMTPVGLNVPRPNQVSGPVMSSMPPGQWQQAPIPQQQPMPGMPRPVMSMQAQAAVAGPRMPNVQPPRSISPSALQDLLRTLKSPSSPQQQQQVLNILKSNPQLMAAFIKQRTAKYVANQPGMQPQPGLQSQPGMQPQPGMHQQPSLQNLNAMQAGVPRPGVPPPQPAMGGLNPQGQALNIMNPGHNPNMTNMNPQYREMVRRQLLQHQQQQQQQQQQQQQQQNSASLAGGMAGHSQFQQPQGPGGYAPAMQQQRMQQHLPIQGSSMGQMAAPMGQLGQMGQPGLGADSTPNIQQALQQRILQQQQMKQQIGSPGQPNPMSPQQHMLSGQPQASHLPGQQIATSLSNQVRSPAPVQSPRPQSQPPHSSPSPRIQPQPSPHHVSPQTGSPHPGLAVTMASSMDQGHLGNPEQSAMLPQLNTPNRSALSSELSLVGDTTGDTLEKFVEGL
UniProt Q04207: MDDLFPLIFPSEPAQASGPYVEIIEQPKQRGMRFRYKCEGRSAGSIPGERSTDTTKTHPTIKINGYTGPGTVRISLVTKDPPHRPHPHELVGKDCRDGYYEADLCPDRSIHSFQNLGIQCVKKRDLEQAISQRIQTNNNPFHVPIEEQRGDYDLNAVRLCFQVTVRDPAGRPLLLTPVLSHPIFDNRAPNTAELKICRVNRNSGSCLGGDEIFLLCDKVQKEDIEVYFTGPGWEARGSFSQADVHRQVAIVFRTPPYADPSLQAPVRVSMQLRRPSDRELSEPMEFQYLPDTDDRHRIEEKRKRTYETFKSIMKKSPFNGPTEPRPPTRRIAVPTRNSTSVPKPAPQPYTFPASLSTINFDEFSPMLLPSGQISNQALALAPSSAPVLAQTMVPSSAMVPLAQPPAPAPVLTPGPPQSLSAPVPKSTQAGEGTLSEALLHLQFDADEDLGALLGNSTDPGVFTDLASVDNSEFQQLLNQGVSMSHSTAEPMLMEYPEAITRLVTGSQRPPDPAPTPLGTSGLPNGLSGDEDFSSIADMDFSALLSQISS

Assays:
[1] = target: cAMP response element binding protein (CREB) (mouse (endogenous in CATH.a)) (UniProt Q01147); assay: co-IP; 100 µg pre-cleared CATH.a total lysate with anti-CBP, anti-CREB or anti-p65 NF-κB antibody and Protein G beads, overnight at 4°C; washes with 50 mM Tris-HCl pH 7.5, 150 mM NaCl, 1% Tween-20, 0.05% Na deoxycholate and 50 mM Tris-HCl pH 7.5, 75 mM NaCl, 0.1% Tween-20; western blot; cells with no ligand, Ang II, Los, Ang II+Los
[2] = target: CREB-binding protein (CBP) (mouse (endogenous in CATH.a)) (UniProt P45481); assay: as above

Substance	binding [1]	binding [2]
p65 NF-κB (from UniProt Q04207 1-549)	no binding	–
cAMP response element binding protein (CREB) (from UniProt Q01147 1-327)	–	binds
